In patent US20240401044A1, “EXPLOITING IL33 SECRETION AS A THERAPEUTIC TARGET IN CANCER” (ROSWELL PARK CANCER INSTITUTE CORPORATION HEALTH RESEARCH, …, priority 2021, published 2024):
At least one structure is not confirmed: it was looked up by name or label, or the drawing left a doubt.

Test system: IL33 expression
Assay: Western blot of IL33 expression in PDAC cell lines treated with MEK and PI3K/AKT inhibitors
Assay type: cell-based, mouse
Details: cell lines derived from KPC tumor model of PDAC; inhibitor treatment for 24 hrs
Procedure: Results are shown as mean ±SEM. P values were calculated using Student t test. Chi-square test and spearman's correlation analysis was done for human PDAC TMA for statistical significance.
The above in silico findings were further validated by western blot analysis showing a complete loss of IL33 expression upon abolishing Kras* signaling (FIG. 3F-G, FIG. 4A-B). We further validated this finding using cell lines derived from KPC tumor model of PDAC (FIG. 1A).
Primary mouse cell lines were established in the laboratory (PJ-B6-4291, PJ-B6-4298) or gift from Dr. Ronald DePinho (AK-B6, AK14838, AK192, HY19636, HY15559) as described previously and were routinely cultured in RPMI 1640 (Invitrogen) 10% FBS (Invitrogen), 100 U/ml penicillin and 100 U/ml streptomycin. For inducible Kras derived cell lines, 1 μg/ml of doxycycline was directly added to the media. The cell lines were mycoplasma free, based on tests done monthly in the laboratory using Lonza's MycoAlert Mycoplasma Detection Kit assays with confirmatory tests by PCR-based assays.
Medium was removed and the cells were washed twice in ice-cold phosphate-buffered saline (PBS), scraped and collected as pellets after centrifugation at 1700 g for 5 min. […] Protein concentrations were measured using the DC Protein Assay Kit (Biorad, Cat. No. 5000111). […]

## CC(=O)Nc1cccc(-n2c(=O)n(C3CC3)c(=O)c3c(Nc4ccc(I)cc4F)n(C)c(=O)c(C)c32)c1 [Trametinib]
  IL33 expression (western blot): complete inhibition of IL33 expression
